Measured values published in PubChem BioAssay AID2551 (National Center for Advancing Translational Sciences (NCATS), 2010).
The campaign covered roughly 310,000 compounds. About 17,000 (5.5%) were called active. This list was built around the results that the source calls inconclusive (neither active nor inactive); the mix of calls is not that of the screen. Calls come from the whole dose curve; as a rule, active = well fitted inhibition curve with a large enough effect; inconclusive = small, poorly fitted or top-dose-only effect, or effect the other way; inactive = no such curve, though single readings can be large or run the other way. Where the call is inconclusive, the potency comes from a doubtful curve fit.

Chains of the proteins cited; added tags and fusions are not shown. Lines headed by an entry give the natural chain unless they say otherwise; changes in a name come on top.
UniProt P51450: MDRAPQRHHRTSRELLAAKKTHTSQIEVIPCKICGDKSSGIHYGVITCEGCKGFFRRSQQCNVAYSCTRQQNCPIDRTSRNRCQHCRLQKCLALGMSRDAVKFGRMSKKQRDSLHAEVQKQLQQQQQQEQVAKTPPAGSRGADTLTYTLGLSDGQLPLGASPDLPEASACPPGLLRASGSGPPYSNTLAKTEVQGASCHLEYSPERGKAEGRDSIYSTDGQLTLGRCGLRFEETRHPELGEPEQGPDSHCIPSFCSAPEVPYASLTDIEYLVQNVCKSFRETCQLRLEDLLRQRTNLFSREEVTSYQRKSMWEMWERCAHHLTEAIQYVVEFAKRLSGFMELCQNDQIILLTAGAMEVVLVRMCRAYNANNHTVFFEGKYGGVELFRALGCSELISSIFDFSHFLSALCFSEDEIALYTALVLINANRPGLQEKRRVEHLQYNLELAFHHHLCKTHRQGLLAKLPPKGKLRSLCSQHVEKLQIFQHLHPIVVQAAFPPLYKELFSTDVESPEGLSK

Each compound was assayed against Nuclear receptor ROR-gamma (Mus musculus) (UniProt P51450) (assay: qHTS for inhibitors of ROR gamma transcriptional activity). Conditions: Drosophila S2 Gal4-RORgamma UAS-luciferase reporter, 20 h; activity change, negative = inhibition: at 53.6 µM (top of the series).
Method in brief: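 Drosophila Schneider cells stably carrying a metallothionein-driven Gal4 DBD–ROR gamma fusion and a UAS-Photinus luciferase reporter were exposed to compound for 1 hr, then induced with copper sulfate (700 uM final) for 20 hr at ambient temperature before luminescence reading.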
% is set by controls: 0 for no effect and ±100 for the full control effect; potency is the fitted concentration of half-maximal effect.
Note: nearly all actives have a fitted effect of over 60% in size.

Activity change, negative = inhibition, inactive:
Cc1cc(C)n(C(=O)COc2ccccc2C)n1 5.94%
COc1cc(CNC2CCCC2)cc(Cl)c1OCc1ccccc1F -33.9%
CC(=O)Oc1ccc(N(C(C)=O)S(=O)(=O)c2ccc3ccccc3c2)cc1Br 40.7%
Clc1ccc(CSc2nnc(-c3c[nH]c4ccccc34)o2)cc1 -10.5%
O=C(CN1C(=O)c2ccccc2S1(=O)=O)NCCC1=CCCCC1 -24.3%
CCNC(=O)NC(=O)COC(=O)CCCSc1nc2ccccc2[nH]1 -0.877%
O=C(CCSCc1cccc(F)c1)NCc1ccc(F)cc1 4.4%
Cc1ccc(-c2nc3cc(NC(=O)C(C)C)ccc3o2)cc1 -17.5%
COc1cc(OC)c(OC)cc1/C=N/NC(=O)CC1C(=O)NN=C1C (stereo not given) -32.1%
COc1ccc2c(c1)sc(=N)n2C 41.1%
O/N=C(\Cc1cscn1)c1ccc(O)cc1O 11.6%
COc1ccc(C(=O)N/C(=C\c2cn(C)c3ccccc23)C(=O)NCCCn2ccnc2)cc1 6.13%
CN1CCN(C(=O)C2=C[C@H](c3csc4ccccc34)C[C@H](OCc3ccc(CO)cc3)O2)CC1 -3.52%
C[C@H]1CNC(=O)C(=O)N1C[C@H](Cc1ccc(O)cc1)NC(=O)CC12CC3CC(CC(C3)C1)C2 -8.55%
O=C(Nc1ccccc1N1CCN(C(=O)c2ccc(Cl)cc2)CC1)c1ccc2c(c1)OCO2 -0.802%
O=[N+]([O-])c1cccc(-c2nc(N3CCOCC3)c3ccccc3n2)c1 10.8%

Filtered by structure: the entries above with an aryl methoxy group.
Activity change, negative = inhibition, inactive:
COc1cc(CNC2CCCC2)cc(Cl)c1OCc1ccccc1F -33.9%
COc1cc(OC)c(OC)cc1/C=N/NC(=O)CC1C(=O)NN=C1C (stereo not given) -32.1%
COc1ccc2c(c1)sc(=N)n2C 41.1%
COc1ccc(C(=O)N/C(=C\c2cn(C)c3ccccc23)C(=O)NCCCn2ccnc2)cc1 6.13%

Following part:

Potency, active:
O=C(NCc1ccc2c(c1)OCO2)c1nc(S(=O)(=O)Cc2ccccc2F)ncc1Cl 7.08 µM
CCCCOc1ccccc1NC(=O)CC1Nc2ccccc2NC1=O (stereo not given) 10 µM
CC(C)CC(=O)NC(=S)Nc1nc(-c2ccccc2)cs1 6.31 µM
S=c1[nH]nc(COc2ccc(Cl)cc2)n1C1CCCCC1 1.12 µM
CC(C)(C)NC(=S)NNC(=O)c1cccc(Br)c1 4.47 µM
Cc1[nH]n(-c2ccccc2)c(=O)c1N=Nc1nccs1 5.62 µM
CC1=C/C(=N\NC(=S)Nc2cccnc2)CC(C)(C)C1 1.78 µM
CCCOc1ccccc1/C=N/NC(=O)C1CC1 8.91 µM
CCOc1ccc(-c2cnc3ccccc3n2)cc1 3.55 µM
O=C(Nc1ccc(F)c(Cl)c1)C1CC(=O)n2c(nc3ccccc32)N1 (stereo not given) 3.55 µM

Potency, inconclusive:
O=C(/C=C/c1ccc([N+](=O)[O-])cc1)N1CCN(Cc2ccccc2)CC1 35.5 µM [activator, single point]
CC(=O)c1ccc(NC(=O)C(C)n2nc(-c3ccccc3)c3cc(Cl)ccc32)cc1 (stereo not given) 15.8 µM [activator, partial curve]
CC(=O)c1ccc(Oc2cc(C)nc(NCc3ccccc3)n2)cc1 7.94 µM [activator, partial curve]
C=CCNC(=O)c1ccc2nccnc2c1 35.5 µM [activator, single point]
CCOc1cccc(-c2c(C(=O)N/N=C(\C)c3cccs3)nnn2-c2nonc2N)c1 20 µM [inhibitor, single point]
Cc1ccc(NC(=O)N(Cc2cccs2)Cc2cc3cc4c(cc3[nH]c2=O)OCO4)cc1 10 µM [activator, partial curve, poor fit]
CCCCn1cc2c(c1-c1cccc(C)c1)c(=O)n(C)c(=O)n2C 15.8 µM [activator, partial curve]
Cc1ccc(C(=O)CC(=O)c2cc(Cl)ccc2O)cc1 0.891 µM [activator, partial curve]
COC(=O)[C@H]1C[C@@H]1[C@H](NC(=O)c1ccccc1)c1ccccc1 1.78 µM [inhibitor, full curve, poor fit]
CCCc1c(C(=O)N/N=C/c2c(OC)ccc3ccccc23)nnn1-c1nonc1N 6.31 µM [inhibitor, single point]
CCC1CCCCN1CCCn1c(=S)[nH]c2ccccc2c1=O (stereo not given) 35.5 µM [inhibitor, single point]
Cc1cc(C(F)(F)F)nc(SCC(=O)Nc2ccccc2)n1 6.31 µM [inhibitor, single point]
CN(C)S(=O)(=O)c1c(Cl)cccc1Cl 35.5 µM [inhibitor, single point]
O=c1c2nccnc2[nH]c(=S)n1Cc1ccccc1Cl 31.6 µM [inhibitor, single point]
COc1ccc(Cn2nnc3c(=O)[nH]c(C4CCCN(C(=O)c5ccccc5)C4)nc32)cc1 (stereo not given) 15.8 µM [activator, single point]
O=C(Nc1nc2ccc([N+](=O)[O-])cc2s1)c1ccco1 0.708 µM [inhibitor, single point]
CCOC(=O)c1cnn(-c2ccc(NS(=O)(=O)c3ccc(Cl)cc3)cc2)c1C(F)(F)F 35.5 µM [activator, single point]
CC(=O)Nc1ccc(OCc2cccc([N+](=O)[O-])c2)cc1 2 µM [activator, full curve, poor fit]
CCOC(=O)c1ccccc1OCc1cc(/C=N/NC(=O)c2ccncc2)ccc1OC 35.5 µM [inhibitor, single point]
CC(C)c1nc(SCC(=O)N2CC(=O)Nc3ccccc32)c2ccccc2n1 12.6 µM [activator, single point]
COCCNc1ncnc2ccc(-c3ccccc3OC)cc12 11.2 µM [activator, partial curve]
Cc1cccc(N2CCN(C(=O)c3cc(COc4ccc(F)c(F)c4)on3)CC2)n1 3.98 µM [activator, partial curve]
Cc1cnc(CNc2ncnc3ccc(-c4c(C)noc4C)cc23)cn1 8.91 µM [inhibitor, partial curve]
CC(=O)CSc1nc2ccccc2s1 35.5 µM [inhibitor, single point]
